Some entries share one result that the patent states for a list of compounds.
Tests used:
[1] = test system: Alternaria solani; test: Activity against early blight of tomato caused by Alternaria solani; type: in vivo; conditions: tomato "Goldene Königin", after 5 days, untreated 90% infected
Protocol: (§1) The active compounds were prepared separately as a stock solution with 25 mg of active compound which was made up to 10 ml with a mixture of acetone and/or DMSO and the emulsifier Uniperol® EL (wetting agent having emulsifying and dispersing action based on ethoxylated alkylphenols) in a volume ratio solvent/emulsifier of 99 to 1. The solution was then made up to 100 ml with water. This stock solution was diluted to the active compound concentration stated below using the solvent/emulsifier/water mixture described.
Activity Against Early Blight of Tomato Caused by Alternaria solani
Leaves of potted plants of the cultivar “Goldene Königin” were sprayed to runoff point with an aqueous suspension having the concentration of active compounds stated below. The next day, the leaves were inoculated with an aqueous spore suspension of Alternaria solani in 2% biomalt solution having a density of 0.17×10^6 spores/ml. The plants were then placed in a water-vapor-saturated chamber at temperatures of between 20 and 22° C. After 5 days, the disease on the leaves of the untreated, but infected control plants had developed to such an extent that the infection could be determined visually in %.

[2] = test system: Botrytis cinerea; test: Activity against gray mold on bell pepper leaves caused by Botrytis cinerea, protective application; type: in vivo; conditions: bell pepper "Neusiedler Ideal Elite", after 5 days, untreated 90% infected
Protocol: as §1
Activity Against Gray Mold on Bell Pepper Leaves Caused by Botrytis cinerea, Protective Application
Bell pepper seedlings of the cultivar “Neusiedler Ideal Elite” were, after 2-3 leaves were well-developed, sprayed to runoff point with an aqueous suspension having the concentration of active compound stated below. The next day, the treated plants were inoculated with a spore suspension of Botrytis cinerea which contained 1.7×10^6 spores/ml in a 2% strength aqueous biomalt solution. The test plants were then placed in a dark climatized chamber at 22-24° C. and high atmospheric humidity. After 5 days, the extent of the fungal infection on the leaves could be determined visually in %.

[3] = test system: Pyrenophora teres; test: Activity against net blotch of barley caused by Pyrenophora teres, 1 day protective application; type: in vivo, Pyrenophora [syn. Drechslera] teres; conditions: 250 ppm; barley "Hanna"; after 6 days; untreated 90% infected
Protocol: The active compounds were prepared separately as a stock solution with 25 mg of active compound which was made up to 10 ml with a mixture of acetone and/or DMSO and the emulsifier Uniperol® EL (wetting agent having emulsifying and dispersing action based on ethoxylated alkylphenols) in a volume ratio solvent/emulsifier of 99 to 1. The solution was then made up to 100 ml with water. This stock solution was diluted to the active compound concentration stated below using the solvent/emulsifier/water mixture described. Activity Against Net Blotch of Barley Caused by Pyrenophora teres, 1 Day Protective Application Leaves of potted barley seedlings of the cultivar “Hanna” were sprayed to runoff point with an aqueous suspension having the concentration of active compounds stated below. 24 hours after the spray coating had dried on, the test plants were inoculated with an aqueous spore suspension of Pyrenophora [syn. Drechslera] teres, the net blotch pathogen. The test plants were then placed in a greenhouse at temperatures between 20 and 24° C. and 95 to 100% relative atmospheric humidity. After 6 days, the extent of the development of the disease was determined visually in % infection of the entire leaf area.

SMILES | infection ([1]; 250 ppm) | infection ([2]; 250 ppm) | other results
CCC(C)Oc1nc(-n2cccn2)nc(Cl)c1-c1c(F)cc(F)cc1F (centres unmarked) [6)] | at most 20% |  | 
CCCCOc1nc(-c2ccccn2)nc(OCCCC)c1-c1c(F)cc(F)cc1F [7)] | at most 20% | at most 20% | 
CCCCOc1nc(-c2ccccn2)nc(Cl)c1-c1c(F)cc(F)cc1F [8)] | at most 20% |  | infection [3]: at most 20%
CC(C)Oc1nc(-c2ccccn2)nc(Cl)c1-c1c(F)cc(F)cc1F [10)] | at most 20% | at most 20% | 
CCCOc1nc(-c2ccccn2)nc(Cl)c1-c1c(F)cc(F)cc1F [12)] | at most 20% | at most 20% | 
CCOc1nc(-c2ccccn2)nc(Cl)c1-c1c(F)cc(F)cc1F [13)] | at most 20% | at most 20% | 
CCCOc1nc(-n2cccn2)nc(Cl)c1-c1c(F)cc(F)cc1F [14)] | at most 20% | at most 20% | 
CCC(C)Oc1nc(C#N)nc(Cl)c1-c1c(F)cc(F)cc1F (centres unmarked) [15)] | at most 20% |  | 
CCC(C)Oc1nc(C(N)=NO)nc(Cl)c1-c1c(F)cc(F)cc1F (centres unmarked) [16)] |  |  | infection ([2]; 63 ppm): at most 20%
CC(C)C(C)Oc1nc(-n2cccn2)nc(Cl)c1-c1c(F)cc(F)cc1F (centres unmarked) [17)] |  |  | infection ([2]; 63 ppm): at most 20%; infection ([1]; 63 ppm): at most 20%
CC(C)Oc1nc(C#N)nc(Cl)c1-c1ccc(F)cc1Cl [21)] |  | at most 20% | 
CON=C(N)c1nc(C)c(-c2ccc(F)cc2F)c(OC(C)C)n1 [22)] |  |  | infection ([2]; 63 ppm): at most 20%; infection ([1]; 63 ppm): at most 20%
CC(C)Oc1nc(-n2cncn2)nc(Cl)c1-c1ccc(F)cc1Cl [23)] |  |  | infection ([2]; 63 ppm): at most 20%; infection ([1]; 63 ppm): at most 20%
CC(C)Oc1nc(C(N)=NO)nc(Cl)c1-c1ccc(F)cc1Cl [24)] |  | at most 20% | infection [3]: at most 20%
CC(C)Oc1nc(C(N)=O)nc(Cl)c1-c1ccc(F)cc1Cl [25)] |  |  | infection ([2]; 63 ppm): at most 20%; infection ([1]; 63 ppm): at most 20%
CON=C(N)c1nc(Cl)c(-c2ccc(F)cc2Cl)c(OC(C)C)n1 [26)] |  |  | infection ([2]; 63 ppm): at most 20%; infection ([1]; 63 ppm): at most 20%
Cc1nc(C(N)=NO)nc(OC(C)C)c1-c1ccc(F)cc1F [27)] |  | at most 20% | 
CCC(CC)Oc1nc(C#N)nc(Cl)c1-c1c(F)cc(F)cc1F [28)] | at most 20% |  | 
CCCC(CC)Oc1nc(-n2cccn2)nc(Cl)c1-c1c(F)cc(F)cc1F (centres unmarked) [29)] | at most 20% |  | 
CC(C)COc1nc(-n2cccn2)nc(Cl)c1-c1c(F)cc(F)cc1F [30)] | at most 20% | at most 20% | 
CC(C)(C)COc1nc(-n2cccn2)nc(Cl)c1-c1c(F)cc(F)cc1F [32)] | at most 20% | at most 20% | 
CCCC(C)Oc1nc(-n2cccn2)nc(Cl)c1-c1c(F)cc(F)cc1F (centres unmarked) [33)] | at most 20% |  | 

SMILES | infection ([1]; 250 ppm) | infection ([2]; 250 ppm) | other results
Fc1cc(F)c(-c2c(Cl)nc(-n3cccn3)nc2OC2CCCCC2)c(F)c1 [35)] | at most 20% |  | infection [3]: at most 20%
Fc1cc(F)c(-c2c(Cl)nc(-n3cccn3)nc2OC2CCCC2)c(F)c1 [36)] | at most 20% | at most 20% | 
CC1CCC(Oc2nc(-n3cccn3)nc(Cl)c2-c2c(F)cc(F)cc2F)CC1 (centres unmarked) [38)] | at most 20% |  | infection [3]: at most 20%
CC(CC(C)(C)C)Oc1nc(-n2cccn2)nc(Cl)c1-c1c(F)cc(F)cc1F (centres unmarked) [39)] | at most 20% |  | 
CON=C(N)c1nc(C)c(-c2ccc(Cl)cc2Cl)c(OC(C)C)n1 [40)] | at most 20% |  | 
Fc1cc(F)c(-c2c(Cl)nc(-n3cncn3)nc2OCC(F)(F)F)c(F)c1 [42)] |  |  | infection ([2]; 63 ppm): at most 20%; infection ([1]; 63 ppm): at most 20%
CCCC(C)Oc1nc(C(N)=NO)nc(Cl)c1-c1c(F)cc(F)cc1F (centres unmarked) [43)] | at most 20% | at most 20% | 
CON=C(N)c1nc(OC(C)C)c(-c2c(F)cc(F)cc2F)c(SC)n1 [45)] | at most 20% |  | 
Cc1nc(-n2cncn2)nc(SC(C)C)c1-c1c(F)cc(F)cc1F [46)] | at most 20% |  | infection [3]: at most 20%
CC(C)Oc1nc(-n2cncn2)nc(Cl)c1-c1c(F)cc(F)cc1F [47)] | at most 20% | at most 20% | 
Cc1nc(C#N)nc(OC(C)C)c1-c1ccc(F)cc1Cl [48)] |  | at most 20% | 
COc1ccc(-c2c(C)nc(C#N)nc2OC(C)C)c(Cl)c1 [49)] |  | at most 20% | 
CON=C(N)c1nc(C)c(-c2ccc(F)cc2Cl)c(OC(C)C)n1 [51)] | at most 20% | at most 20% | 
Cc1nc(C(N)=NO)nc(OC(C)C)c1-c1ccc(F)cc1Cl [52)] |  | at most 20% | 
Cc1nc(C(N)=O)nc(OC(C)C)c1-c1ccc(F)cc1Cl [53)] | at most 20% | at most 20% | 
CON=C(N)c1nc(C)c(-c2ccc(OC)cc2Cl)c(OC(C)C)n1 [55)] | at most 20% | at most 20% | 
COc1ccc(-c2c(C)nc(C(N)=NO)nc2OC(C)C)c(Cl)c1 [56)] | at most 20% | at most 20% | 
COc1ccc(-c2c(C)nc(C(N)=O)nc2OC(C)C)c(Cl)c1 [57)] | at most 20% | at most 20% | 
CCC(C)Oc1nc(C(N)=NOC)nc(Cl)c1-c1c(F)cc(F)cc1F (centres unmarked) [67)] |  | at most 20% | 
CC(C)C(C)Oc1nc(C(N)=NO)nc(Cl)c1-c1c(F)cc(F)cc1F (centres unmarked) [68)] |  | at most 20% | infection [3]: at most 20%
CON=C(N)c1nc(Cl)c(-c2c(F)cc(F)cc2F)c(OC(C)C(C)C)n1 (centres unmarked) [69)] |  | at most 20% | infection [3]: at most 20%

Reference: US20080132522A1, “2-Substituted Pyrimidines, Method for Their Production and Their Use for Controlling Pathogenic Fungi” (BASF Aktiengesellschaft, priority 2004, published 2008)
